# According to the supplement of paper PMC4604168 (melanoma cell lines):
# Some of the results follow. Single values are uncertain, as repeats are few or missing.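 The apoptosis fraction was the count of cleaved-PARP antibody-stained nuclei relative to all DNA-stained nuclei, imaged in 1,536-well plates. Screening doses were set so most cells survived, and baseline and induced cleaved-PARP levels vary greatly across cell lines.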
# Assays:
# Experiment in all cases: cleaved PARP positive nuclei fraction relative to DMSO control; melanoma cells; higher = more apoptosis
# Conditions in all cases: library dose: low library concentration; 72 h
# COLO792 = tested on: COLO792
# COLO800 = tested on: COLO800
# COLO829 = tested on: COLO829
# G361 = tested on: G361
# IPC-298 = tested on: IPC-298
# IST-MEL1 = tested on: IST-MEL1
# LB2518-MEL = tested on: LB2518-MEL
# LOXIMVI = tested on: LOXIMVI
# MEL-HO = tested on: MEL-HO
Structure (SMILES),cleaved PARP positive nuclei fraction (COLO792),cleaved PARP positive nuclei fraction (COLO800),cleaved PARP positive nuclei fraction (COLO829),cleaved PARP positive nuclei fraction (G361),cleaved PARP positive nuclei fraction (IPC-298),cleaved PARP positive nuclei fraction (IST-MEL1),cleaved PARP positive nuclei fraction (LB2518-MEL),cleaved PARP positive nuclei fraction (LOXIMVI),cleaved PARP positive nuclei fraction (MEL-HO)
"CCCCCCCCc1ccc(CCC(N)(CO)CO)cc1 [fingolimod] + C=CCn1c(=O)c2cnc(Nc3ccc(N4CCN(C)CC4)cc3)nc2n1-c1cccc(C(C)(C)O)n1 [MK1775] (first compound 2 µM, partner dose 0.02 µM)",73.6%,33.1%,73.8%,53.6%,95%,88.3%,62.7%,17.8%,66.1%
"CC(=O)O[C@@]12CO[C@@H]1C[C@H](O)[C@@]1(C)C(=O)[C@H](O)C3=C(C)[C@@H](OC(=O)[C@H](O)[C@@H](NC(=O)OC(C)(C)C)c4ccccc4)C[C@@](O)([C@@H](OC(=O)c4ccccc4)[C@H]21)C3(C)C [Docetaxel] + N#Cc1c(O)c2c(-c3ccc(-c4ccccc4O)cc3)csc2[nH]c1=O [A769662] (first compound 0.0001 µM, partner dose 2 µM)",533%,519%,237%,660%,224%,154%,141%,51.3%,–
"C[C@]1(O)C[C@@H](c2nc(-c3ccc4ccc(-c5ccccc5)nc4c3)c3c(N)nccn32)C1 + O=C(CCCCCCC(=O)Nc1ccccc1)NO [vorinostat] (first compound 0.4 µM, partner dose 0.08 µM)",47.7%,229%,203%,121%,48.5%,321%,132%,166%,148%
"Cn1sc(=O)n(Cc2ccccc2)c1=O + Oc1nc(-c2ccc(C(F)(F)F)cc2)nc2c1CSCC2 [XAV939] (first compound 0.4 µM, partner dose 2 µM)",57.8%,109%,35.9%,74.4%,29.9%,116%,79.1%,87.5%,–
"Cn1sc(=O)n(Cc2ccccc2)c1=O + COc1cc(N2CCC(N3CCN(C)CC3)CC2)ccc1Nc1ncc(Cl)c(Nc2ccccc2S(=O)(=O)C(C)C)n1 [NVP-TAE684] (first compound 0.4 µM, partner dose 0.08 µM)",258%,151%,107%,111%,179%,70.5%,58%,126%,–
"NC(=O)c1ccc(N(C(N)=O)c2c(F)cccc2F)nc1-c1ccc(F)cc1F + CCCCCCCCCCCC1=C(O)C(=O)C=C(O)C1=O [Embelin] (first compound 0.4 µM, partner dose 1.2 µM)",144%,19.3%,69.2%,49.1%,68.4%,207%,24.2%,155%,–
"NC1(c2ccc(-c3nc4ccn5c(=O)[nH]nc5c4cc3-c3ccccc3)cc2)CCC1 + COc1ccc(-c2ccc3c(N4CCOCC4)nc(N4C[C@@H](C)O[C@@H](C)C4)nc3n2)cc1CO [KU0063794] (first compound 0.4 µM, partner dose 0.02 µM)",138%,135%,98.7%,75.3%,147%,568%,88.9%,109%,–
"COc1ccc(C2=N[C@@H](c3ccc(Cl)cc3)[C@@H](c3ccc(Cl)cc3)N2C(=O)N2CCNC(=O)C2)c(OC(C)C)c1 [Nutlin-3] + Cc1cc(N2CCOCC2)cc2[nH]c(-c3c(NC[C@@H](O)c4cccc(Cl)c4)cc[nH]c3=O)nc12 [BMS536924] (first compound 0.1 µM, partner dose 0.2 µM)",76.3%,125%,91%,62.8%,95.3%,99.8%,50.3%,113%,130%
"CS(=O)(=O)c1ccc(C(=O)Nc2ccc(Cl)c(-c3ccccn3)c2)c(Cl)c1 [vismodegib] + O=c1cc(-c2cccc3c2Sc2ccccc2S3)oc(N2CCOCC2)c1 [KU55933] (first compound 1 µM, partner dose 1 µM)",98.6%,114%,35.9%,93.4%,47.3%,37.9%,67.3%,61.4%,–
"NC1(c2ccc(-c3nc4ccn5c(=O)[nH]nc5c4cc3-c3ccccc3)cc2)CCC1 + OCCn1cc(-c2cnc3nnn(Cc4ccc5ncccc5c4)c3n2)cn1 [PF04217903] (first compound 0.4 µM, partner dose 1 µM)",91.2%,85.9%,61.4%,62%,61.5%,268%,290%,63.1%,38.5%
"CS(=O)(=O)c1ccc(C(=O)Nc2ccc(Cl)c(-c3ccccn3)c2)c(Cl)c1 [vismodegib] + O=C(O)C(=O)Nc1sc2c(c1C(=O)O)CCNC2 [TCS401] (first compound 1 µM, partner dose 1.66667 µM)",45.6%,119%,162%,77.4%,45.6%,130%,133%,102%,–

# Laid out differently: entries from further up
Structure (SMILES)	cleaved PARP positive nuclei fraction (COLO792)	cleaved PARP positive nuclei fraction (COLO800)	cleaved PARP positive nuclei fraction (COLO829)	cleaved PARP positive nuclei fraction (G361)	cleaved PARP positive nuclei fraction (IPC-298)	cleaved PARP positive nuclei fraction (IST-MEL1)	cleaved PARP positive nuclei fraction (LB2518-MEL)	cleaved PARP positive nuclei fraction (LOXIMVI)	cleaved PARP positive nuclei fraction (MEL-HO)
Cn1sc(=O)n(Cc2ccccc2)c1=O + Oc1nc(-c2ccc(C(F)(F)F)cc2)nc2c1CSCC2 [XAV939] (first compound 0.4 µM, partner dose 2 µM)	57.8%	109%	35.9%	74.4%	29.9%	116%	79.1%	87.5%	–
CS(=O)(=O)c1ccc(C(=O)Nc2ccc(Cl)c(-c3ccccn3)c2)c(Cl)c1 [vismodegib] + O=c1cc(-c2cccc3c2Sc2ccccc2S3)oc(N2CCOCC2)c1 [KU55933] (first compound 1 µM, partner dose 1 µM)	98.6%	114%	35.9%	93.4%	47.3%	37.9%	67.3%	61.4%	–
